These results are taken from article PMC10163288.

Some of the results follow. A value given as a limit tells only on which side of the number the result lay.

Sequences and labels used below:
B1: il2ra_site1_2b5i_sap_10_mot_HHH_b2_05260_af2_000000278_0001_1_17_H_._HHH_b2_03791_af2_0001_0000100001_0000001_0_0001_af2pred_0001_af2pred (protein)
chain: SSSSDEEFERVTELYRRASKLFLRGNKEEARQLLEEAIEIAEEAGDERIVEELRRFLELISSSSS
B2: il2ra_site1_2b5i_sap_7_mot_a062c9180b9d9b99c2c1a6214047e1ca_0001_000000007_0001_1_12_H_._HHH_b1_01731_0001_0000200020_0000001_1_0001_af2pred_dldesign_0_af2pred (protein)
chain: SSSSSSRREAILKIEELLKEADKLEDLEERQKVLDEAEKLAKELGDPFLLKAVADRRAELSSSSS
B3: il2ra_site2_2erj_normal_mot_HHH_b1_08185_000000063_0001_41_55_H_._HHH_b1_08449_af2_0001_0000200032_0000001_0 (protein)
chain: SSSSSEAELILELLERQIREAIERNDPSEVELLLRYLKLSAHDANDEEAEEVLEELEELISSSSS
B4: il2ra_site1_3nfp_normal_mot_cc4219192d8ccd35c40e7b68f9a57604_0001_af2_000000124_0001_16_32_H_._HHH_b2_07250_0001_0000900010_0000001_0_af2pred_0001_af2pred (protein)
chain: SSSSDALEWVEELAEKAFENNDKQLLEALYKLLREALEKYGDPEAEEVLEKVEELLRELQSSSSS
B5: il2ra_site1_3nfp_normal_mot_HHH_b2_05589_af2_000000178_0001_1_18_H_._HHH_b2_00580_af2_0001_0000300010_0000001_0_af2pred_0001_af2pred_1 (protein)
chain: SSSSSEEFKEVNRLLKEVVELRRNGNKEEAERLLEELLEELEKLNNEREARFVRKLLELKSSSSS
B6: il2ra_site1_3nfp_normal_mot_HHH_b2_01680_af2_000000278_0001_1_15_H_._HHH_b2_05745_0001_0000200008_0000001_0 (protein)
chain: SSSSDLHEFVEKVFRELFRLAREGDPEEARELVEEAIQLARELNDESALRKLELALKIIEGSSSS
B7: il2ra_site2_3nfp_sap_20_mot_b0be08dbeb19038e97ce33ab5425b229_0001_000000099_0001_16_33_H_._94ba4ec743f669b1dff215a975ef15fa_0001_1_0001_0000100002_0000001_0_000 … (protein)
chain: SEVEAAVRRIRENPERAEFLLWYVILRLAEELNVPPEEAARILEELLEELGNPELVEVVERLEKK
B8: il2ra_site2_2erj_sap_24_mot_HHH_b1_06627_000000072_0001_40_54_H_._HHH_b1_00814_0001_0000100002_0000001_0_0001 (protein)
chain: SSSSSDAHELAARAVEETIRAEREGDPEEAREILEEALEEARELNNELVVRFLELALEDLSSSSS
B9: il2ra_site2_3nfp_normal_mot_HHH_b1_05437_000000005_0001_40_57_H_._240341e08b947b301b1390bbd516957c_0001_af2_0001_0000300009_0000001_0 (protein)
chain: DEEFFEEILRLLENGDPEEARRVLARLAELAYEKNDFELFALVQELLFLILHDPEKAEELARKIR
B10: il2ra_site2_2erj_sap_26_mot_64bd02d26d05ce9f1a62b616cea0b888_0001_af2_000000029_0001_36_49_H_._HHH_b1_06641_0001_0000100005_0000001_0_0001 (protein)
chain: SSSSNEEASRLAREAFEELHRLFKEGDEEEFEELVEEVRERLERLGDPEAAKTIKRVAEFASSSS
B11: il2ra_site2_2erj_normal_mot_HHH_b2_04744_000000294_0001_42_58_H_._HHH_b1_07967_af2_0001_0000500022_0000001_0 (protein)
chain: SSSSDEEERLEELLKELEELSRKRDFHRFAEVFSEILELVEENNDEEAALIAFRIMREHFGSSSS
B12: il2ra_site2_3nfp_normal_mot_HHH_b1_05627_af2_000000038_0001_43_56_H_._HHH_b2_03760_0001_0000100003_0000001_0 (protein)
chain: SSSSSKAERYLEVAVLLLEEALKEGDEEVARRLLEVVESLAEALNDEEIQERLEEIREELSSSSS
B13: il2ra_site1_2b5i_normal_mot_HHH_b2_04910_000000118_0001_1_19_H_._HHH_b2_05178_af2_0001_0000100001_0000001_0_af2pred_dldesign_0_af2pred (protein)
chain: SSSSSDAKKALELFLEAEELYKEGKYDEAIKKLEEALELAKKAKNNSLVKMIELALKQLKSSSSS
B14: il2ra_site1_3nfp_sap_20_mot_HHH_b1_01159_af2_000000107_0001_1_20_H_._HHH_b1_08125_0001_0000600030_0000001_0_0001 (protein)
chain: SSSSDVRQEVNRLLREIMRLINEGDPEEAEELVEEAERLIREANDEWARRLLEQLKEKIDSSSSS
B15: il2ra_site2_3nfp_normal_mot_HHH_b1_06399_000000296_0001_43_57_H_._28a7dda1a33635c05f5ab621834c8d3e_0001_0001_0000200026_0000001_0 (protein)
chain: DEEIREALRHALEAGFPPEQVVFAVLALLLEKGIPPEEVHEIIEKAIEELGDPELQRVVEEFKQR
B16: il2ra_site2_2erj_sap_31_mot_HHH_b1_00839_000000020_0001_43_57_H_._HHH_b1_08027_0001_0000600039_0000001_0_0001 (protein)
chain: SSSSDETAERVAELIRRAVEAAENGNPEEAEELLREALEVAEEGNNPELARAVELMLKFLSSSSS
B17: il2ra_site1_2b5i_sap_27_mot_2012b86ae8029c2c8ab6d311e818aa61_0001_af2_000000125_0001_35_49_H_._8e6b26e28a7d461b936e264dc559eb07_0001_0001_0000300024_0000001_0_0 … (protein)
chain: SSSSSSDVEERVEELIELAKKLEDPVERKRVLTLARKIAKKHNRPELEKRVEEVRKELESSSSSS
B18: il2ra_site2_3nfp_sap_20_mot_HHH_b1_06577_af2_000000152_0001_20_36_H_._715270f0c9e4bd6ea7f8f80f44138a82_0001_1_0001_0000600047_0000001_0_0001 (protein)
chain: SSSSDKAEEYLEIALELLRRALEHGDEESFKSILETAKAMAESNRDEEAKEELKELEELLSSSSS
B19: il2ra_site2_2erj_normal_mot_HHH_b2_07287_af2_000000108_0001_40_57_H_._HHH_b1_07249_0001_0000300019_0000001_0 (protein)
chain: SSSSDEFHEANRLWREIHEAVQEGDEELVRRLLEELQEFAEEYNNKAAEAVIRIVEQVLNSSSSS
B20: il2ra_site2_3nfp_normal_mot_HHH_b2_04451_000000238_0001_21_37_H_._HHH_b1_04560_af2_0001_0000400020_0000001_0 (protein)
chain: SSSSDEEEEEIQELIKEAEELLKEGDPYEALRVLAEATQLAARLGNDELARIILELFEKVQSSSS
B21: il2ra_site2_3nfp_normal_mot_HHH_b2_06150_000000217_0001_39_53_H_._HHH_b2_05833_0001_0000200009_0000001_0_af2pred_0001_1_af2pred_swapped (protein)
chain: SSSDAEERVRELIEEAKELAERGNPEEAREVLAEAAKLAFELGDAELFMEIAELLLRVDELSSSS
B22: il2ra_site1_2b5i_sap_9_mot_HHH_b1_03046_af2_000000154_0001_39_55_H_._HHH_b2_00259_0001_0000500030_0000001_0_0001 (protein)
chain: SSSSSSVREARELFHEADELDRKGDPEEAERVLREAEEIAREAGSRVYLRSIESALKQAESSSSS
B23: il2ra_site2_3nfp_normal_mot_HHH_b1_05627_af2_000000038_0001_43_56_H_._HHH_b1_08236_0001_0000900039_0000001_0 (protein)
chain: SSSSDKRERYLEAALLAIERAIREGDDEIARKHLQAVKALAEDLNDEEILELVEELEELLRSSSS
B24: il2ra_site1_2b5i_normal_mot_3116615af0ee64d731c1c85d8523bf51_0001_000000216_0001_15_32_H_._HHH_b1_07838_af2_0001_0000100001_0000001_0_af2pred_dldesign_0_af2pred (protein)
chain: SSSSSALEKEVEETLAKADELKAAGKRREALEALEKIHKKLSAADAEDLQEKVEKKAKELSSSSS

The target in this assay is il2ra, P01589. The experiment in a line: yeast display titration.
Take B1: the apparent Kd was inactive: > 6.82 nM.
Turning to B2, the apparent Kd is inactive: > 1050 nM.
The entry for B3 is “inactive: no binding seen”; for B4 it is “inactive: no binding seen”.
To B5 belongs “inactive: no binding seen”; to B6, “inactive: no binding seen”.
Turning to B7, the “apparent Kd” value is “inactive: no binding seen”.
Take B8: the apparent Kd is inactive: > 555 nM.
To B9 belongs “inactive: no binding seen”.
For B10, the “apparent Kd” value was “inactive: no binding seen”.
As to B11, the “apparent Kd” value is “inactive: no binding seen”.
To B12 belongs “inactive: no binding seen”; to B13, “inactive: no binding seen”.
The entry for B14 is “inactive: no binding seen”; for B15 it is “inactive: no binding seen”.
To B16 belongs “inactive: no binding seen”; to B17, “inactive: no binding seen”; to B18, “inactive: no binding seen”.
In the case of B19, the “apparent Kd” value is “inactive: no binding seen”.
To B20 belongs “inactive: no binding seen”.
The entry for B21 is “inactive: no binding seen”; for B22 it is “inactive: no binding seen”.
Take B23: the “apparent Kd” value was “inactive: no binding seen”.
With B24, the “apparent Kd” value was “inactive: no binding seen”.

The term apparent Kd denotes a dissociation constant that holds for the conditions of the assay.
